At least one structure is not confirmed: it was looked up by name or label, or the drawing left a doubt.
System: p21-LacZ (WAZ) transgene
Format: in vivo
Details: WAZ44 mouse, five doses of 30 mg/kg i.p., frozen brain section
Description: Each test compound was dissolved in the appropriate vehicle solution and administered by intraperitoneal injection (i.p.) at a dose volume of 10 ml/kg. Wherever possible, both naive (untreated) and vehicle-treated controls were used. If a test item whose toxicity in the mouse is poorly characterised was to be used, a dose-ranging experiment was conducted prior to the main experiment. The test item was administered to a single mouse which was monitored for any adverse effects 6-8 hours and 24 hours later. If the single dose ranging mouse tolerated the treatment, the remaining mice were administered the test item according to the protocol.
Two slices of tissue (˜2 mm thickness) were removed for histochemical analysis of LacZ expression according to methods described below.
Mouse brains were dissected so as to reveal the dentate gyrus as fully as possible. In the case of the kidneys, one kidney was cut in longitudinal section and the other in transverse section.
Tissues were washed with PBS and prefixed in 0.2% glutaraldehyde in PBS containing 0.1M MgCl2 and 5 mM EDTA, pH 7.3, for 4 hours at 4° C. on a shaker. […]
Prior to staining, sections were incubated in 0.2% glutaraldehyde (as above) for 10 minutes at room temperature then washed twice (5 min each) in PBS containing 2 mM MgCl2, 0.01% sodium deoxycholate and 0.02% % Nonidet-P40. […] Slides were evaluated and photographed. • Frozen Method 2 […]

C=CC(N)=O [acrylamide]
LacZ expression in brain: high level of LacZ expression in the dentate gyrus, hippocampus and cortex
